Record: PubChem BioAssay AID1053208 (Peter MacCallum Cancer Centre, 2014)
Screen: 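Synthetic lethal interactions between gene loss and doxorubicin in osteosarcoma cells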 (primary screen). Cells: mouse osteosarcoma cells, early-passage culture from an engineered mouse model of fibroblastic bone tumour. Reagents: siRNA pool against mouse genes, 40 nM. Time to read-out: about 120 h (48 h before drug, then 72 h with drug). Treatment: doxorubicin 100 nM for 72 h, roughly 30-40% inhibitory dose. Measured: 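Luminescent ATP signal taken as viability with or without 100 nM doxorubicin for 72 h; mean of two wells set against non-targeting siRNA and turned into robust z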. Reading the numbers: viability z-score with doxorubicin: higher = more viable cells under doxorubicin; viability z-score without drug: higher = more viable cells with knock-down alone. Active means: 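a pool counts as active when its viability z-score with doxorubicin is -2 or below and its z-score without drug lies between -2 and 2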.
Here is one part, drawn at random, of about 17,000 reagents tested. Of all reagents, 788 (4.7%) are marked active. 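Calls rest on z-score classes alone; an extra cut-off of viability at most 70% of control was not applied to them.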 The numbers tell different reagents against one gene apart. Further read-outs or replicates are left out here.

Acot8 (GeneID 170789): combined z-score class = high cell count without drug only; viability z-score with doxorubicin = 0.11; viability z-score without drug = 2.36; activity call = inactive
Tgfa (GeneID 21802): combined z-score class = no change with or without drug; viability z-score with doxorubicin = -0.79; viability z-score without drug = -1.18; activity call = inactive
Lilrb4b (GeneID 14727): combined z-score class = no change with or without drug; viability z-score with doxorubicin = 0.45; viability z-score without drug = -0.84; activity call = inactive
Rpgr (GeneID 19893): combined z-score class = no change with or without drug; viability z-score with doxorubicin = -1.24; viability z-score without drug = 0; activity call = inactive
Tcaf2 (GeneID 232748): combined z-score class = no change with or without drug; viability z-score with doxorubicin = 1.35; viability z-score without drug = -0.51; activity call = inactive
Zfp28 (GeneID 22690) #1: combined z-score class = no change with or without drug; viability z-score with doxorubicin = 0.34; viability z-score without drug = 1.35; activity call = inactive
Zfp28 (GeneID 22690) #2: combined z-score class = no change with or without drug; viability z-score with doxorubicin = -0.45; viability z-score without drug = -0.51; activity call = inactive
Abtb2 (GeneID 99382): combined z-score class = no change with or without drug; viability z-score with doxorubicin = 1.35; viability z-score without drug = 0.84; activity call = inactive
Miip (GeneID 28010): combined z-score class = no change with or without drug; viability z-score with doxorubicin = -1.35; viability z-score without drug = 1.18; activity call = inactive
Rbm43 (GeneID 71684): combined z-score class = no change with or without drug; viability z-score with doxorubicin = -0.67; viability z-score without drug = -0.34; activity call = inactive
Rwdd1 (GeneID 66521): combined z-score class = high cell count without drug only; viability z-score with doxorubicin = 0.45; viability z-score without drug = 2.53; activity call = inactive
Rab5b (GeneID 19344): combined z-score class = no change with or without drug; viability z-score with doxorubicin = 0.11; viability z-score without drug = 0.17; activity call = inactive
BC012016: combined z-score class = no change with or without drug; viability z-score with doxorubicin = -0.34; viability z-score without drug = -0.51; activity call = inactive
Rnase6 (GeneID 78416): combined z-score class = no change with or without drug; viability z-score with doxorubicin = -1.69; viability z-score without drug = 0; activity call = inactive
Slc25a32 (GeneID 69906): combined z-score class = no change with or without drug; viability z-score with doxorubicin = -0.56; viability z-score without drug = -0.84; activity call = inactive
Casp14 (GeneID 12365): combined z-score class = no change with or without drug; viability z-score with doxorubicin = 0.9; viability z-score without drug = 1.35; activity call = inactive
Cd93 (GeneID 17064): combined z-score class = no change with or without drug; viability z-score with doxorubicin = 0; viability z-score without drug = -0.51; activity call = inactive
Magea8 (GeneID 17144): combined z-score class = no change with or without drug; viability z-score with doxorubicin = -1.12; viability z-score without drug = -1.01; activity call = inactive
Pola1 (GeneID 18968): combined z-score class = low cell count with doxorubicin only; viability z-score with doxorubicin = -2.25; viability z-score without drug = -0.17; activity call = active
Rfng (GeneID 19719): combined z-score class = no change with or without drug; viability z-score with doxorubicin = 1.46; viability z-score without drug = -0.51; activity call = inactive
Trim59 (GeneID 66949): combined z-score class = no change with or without drug; viability z-score with doxorubicin = 0.67; viability z-score without drug = 0.84; activity call = inactive
Tmem242 (GeneID 70544): combined z-score class = no change with or without drug; viability z-score with doxorubicin = 0.11; viability z-score without drug = 0.17; activity call = inactive
Cd200r2 (GeneID 271375): combined z-score class = no change with or without drug; viability z-score with doxorubicin = 0.45; viability z-score without drug = 0.51; activity call = inactive
Rab25 (GeneID 53868): combined z-score class = no change with or without drug; viability z-score with doxorubicin = -0.11; viability z-score without drug = -0.17; activity call = inactive
Ikbkb (GeneID 16150): combined z-score class = no change with or without drug; viability z-score with doxorubicin = 1.91; viability z-score without drug = 0.34; activity call = inactive
Maco1 (GeneID 66146): combined z-score class = no change with or without drug; viability z-score with doxorubicin = 0; viability z-score without drug = -0.84; activity call = inactive
9530080O11Rik (GeneID 319247): combined z-score class = no change with or without drug; viability z-score with doxorubicin = -0.22; viability z-score without drug = -0.51; activity call = inactive
Or4c29 (GeneID 258453): combined z-score class = low cell count with doxorubicin only; viability z-score with doxorubicin = -2.02; viability z-score without drug = -1.85; activity call = active

Entries listed above with an active call, once more:
Pola1 (GeneID 18968): combined z-score class = low cell count with doxorubicin only; viability z-score with doxorubicin = -2.25; viability z-score without drug = -0.17; activity call = active
Or4c29 (GeneID 258453): combined z-score class = low cell count with doxorubicin only; viability z-score with doxorubicin = -2.02; viability z-score without drug = -1.85; activity call = active
